# Test results as given in PubChem BioAssay AID1347075 (National Center for Advancing Translational Sciences (NCATS), 2019).
# Screen size: about 400,000 compounds; about 5,500 (1.4%) were called active. Inconclusive results, whose numbers are uncertain, are shown with a selection of clear calls. Calls follow the shape of the dose curve; as a rule, active = well fitted cell-killing curve with a large enough effect; inconclusive = small, poorly fitted or top-dose-only effect, or effect the other way; inactive = flat fitted curve, though single readings scatter. A potency beside an inconclusive call is a rough fit, not a confirmed value.
# Experiment: qHTS assay for MDR1-selective chemotherapeutics: Primary screen using the parental adenocarcinoma cell KB-3-1; also: nearly all actives have a fitted effect of over 60% in size
# Settings: KB-3-1 viability, CellTiter-Glo ATP luminescence, 72 h; activity change, negative = cytotoxic: at 46.1 µM (top of the series)
# Method in brief: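 KB-3-1 parental drug-naive adenocarcinoma cells in DMEM/10% FBS, incubated 72 h at 37 C with pin-transferred compounds across a concentration series. Viability by CellTiter-Glo luminescence; concentration-response curves fitted after normalization.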
# % is scaled to controls: 0 for no effect and ±100 for the full control effect; potency is read from the fitted curve at half-maximal effect.
SMILES,Potency,"activity change, negative = cytotoxic"
COc1ccc(N(Cc2cc3cccc(C)c3[nH]c2=O)S(=O)(=O)c2ccc(OC)cc2)cc1,"inconclusive: 20.6 µM [cytotoxic, single point]",
CC(C)(C)C1C/C(=C/c2ccccn2)C(=O)/C(=C/c2ccccn2)C1 (centres undefined),"inconclusive: 1.84 µM [cytotoxic, partial curve, poor fit]",
CCOc1ccc(CCNC(=O)c2ccc(F)c(S(=O)(=O)N3CCOCC3)c2)cc1OCC,"inconclusive: 20.6 µM [cytotoxic, single point]",
CCCC(=O)N1CCN(c2ccc(NC(=S)NC(=O)c3cccc(C)c3)cc2)CC1,"inconclusive: 29.1 µM [cytotoxic, single point]",
O=C(C[C@H]1C(=O)N(CCc2ccccc2)C[C@@H]1Cc1ccccc1)Nc1ccccc1,"inconclusive: 29.1 µM [cytotoxic, single point]",
CC1C(=O)C(C)C(c2cc(Br)ccc2O)NC1c1cc(Br)ccc1O (centres undefined),"inconclusive: 8.2 µM [cytotoxic, partial curve, poor fit]",
CCN(CC)C(=O)NC(c1ccc(C)c(F)c1)C(Cl)(Cl)Cl (centres undefined),"inconclusive: 29.1 µM [cytotoxic, single point]",
O=C(Nc1nc2c(s1)CCCC2)c1ccc(Br)s1,active: 16.4 µM,
Cc1ccc(NC(=O)Cn2c(=O)ccc3cc(S(=O)(=O)N4CCC(C)CC4)ccc32)cc1Cl,,inactive: -6.19%
CCCCn1c(CN(C)Cc2ccccc2)nc2c1c(=O)n(C)c(=O)n2C,"inconclusive: 20.6 µM [cytotoxic, single point]",
O=C(Nc1cccc(S(=O)(=O)N2CCOCC2)c1)c1c2c(nc3ccccc13)CCC2,,inactive: -0.464%
Cc1ccc(-c2csc(N(CC3CCCO3)C(=O)c3ccco3)n2)cc1 (centres undefined),"inconclusive: 23.1 µM [cytotoxic, single point]",
COc1cccc(NC(=S)N/N=C2/CCCCc3ccccc32)c1,"inconclusive: 14.6 µM [cytotoxic, partial curve, poor fit]",
Cc1ccccc1CS(=O)(=O)Cc1ccc(C(=O)NCc2ccc(F)cc2)o1,,inactive: -4.87%
NC(N)=Nc1ccc(C=C2C=Cc3ccccc32)cc1,"inconclusive: 20.6 µM [cytotoxic, single point]",
COc1ccc(Cn2c(SC)nc3ccccc32)cc1[N+](=O)[O-],"inconclusive: 23.1 µM [cytotoxic, single point]",
COc1ccc(-c2coc3c(C(=O)Nc4cc(OC)c(OC)c(OC)c4)cccc23)c(C)c1,"inconclusive: 20.6 µM [cytotoxic, single point]",
Cc1c(CCOC(=O)C23CC4CC(CC(C)(C4)C2)C3)sc[n+]1Cc1ccccc1,"inconclusive: 29.1 µM [cytotoxic, single point]",
C[C@@H]1O[C@H](C2CC2)Cc2[nH]c(=S)[nH]c(=O)c21,"inconclusive: 20.6 µM [cytotoxic, single point]",
C=CCNC(=O)C(=O)Nc1ccc2c(c1)N(S(=O)(=O)c1cccs1)CCC2,"inconclusive: 20.6 µM [cytotoxic, single point]",
CC(C)N=C(NS(=O)(=O)c1ccccc1)C(Cl)(Cl)Cl,active: 5.8 µM,
CCc1ccc(NCc2cc3cc4c(cc3n(CC(=O)Nc3ccc(F)cc3)c2=O)OCCO4)cc1,"inconclusive: 18.4 µM [rising, partial curve, poor fit]",

SMILES,Potency,"activity change, negative = cytotoxic"
Cc1ccc(CS(=O)(=O)Cc2ccc(C(=O)NCc3cccs3)o2)cc1,,inconclusive: -34.8%
COc1ccc(CNC(=O)C2CCN(S(=O)(=O)c3cccc4nonc34)CC2)cc1OC,,inactive: -0.437%
OCC[C@@H]1C[C@@H](O)[C@H](O)[C@]2(CCCCO2)O1,,inactive: 43.1%
N=c1c(-c2nc3ccccc3[nH]2)cc(C(=O)c2cccs2)nn1-c1ccccc1,,inactive: 10%
NC[C@H]1O[C@@H](n2ccc(N)nc2=O)[C@H](O)[C@@H]1O,"inconclusive: 29.1 µM [cytotoxic, single point]",
COc1ccccc1Cc1c(-c2ccc(Cl)cc2)nc2c(Cl)cc(C(F)(F)F)cn12,"inconclusive: 23.1 µM [cytotoxic, single point]",
CC1(C)COCN1S(=O)(=O)c1ccc(C(=O)Nc2nnc(-c3ccc(Cl)s3)o2)cc1,"inconclusive: 10 µM [cytotoxic, partial curve, poor fit]",
Cn1c(=O)cc(SCC(=O)NCc2ccc(F)cc2)c2ccccc21,"inconclusive: 16.4 µM [cytotoxic, partial curve, poor fit]",
Cc1ccc(CCNC(=O)CSCc2ccc(F)cc2)cc1,"inconclusive: 0.461 µM [rising, full curve]",
CCc1cc2c(N=Nc3c(O)[nH]c4ccccc34)ncnc2s1,"inconclusive: 29.1 µM [cytotoxic, single point]",
N#Cc1nc(Cl)c(Cl)c(NN)c1Cl,"inconclusive: 18.4 µM [rising, partial curve, poor fit]",
O=C1NC[C@H](CCCCN2C[C@@H](Cc3ccccc3)N(CC3CCCCC3)C(=O)C2=O)N(CCC2CCCCC2)C1=O,"inconclusive: 29.1 µM [cytotoxic, single point]",
CCN1/C(=C\c2ccc3cc(C)ccc3[n+]2CC)Sc2cc(C)c(C)cc21,"inconclusive: 5.8 µM [cytotoxic, full curve, poor fit]",
COc1ccc(-n2cc(-c3ccc(C)cc3)[n+]3c2SCC3)cc1,"inconclusive: 0.58 µM [cytotoxic, full curve, poor fit]",
CC(C)CCCCCCCCCCCCC(=O)NCC(=O)NC1C(O)C(O)C(Nc2ncnc3nc[nH]c23)OC1C(O)CO (centres undefined),active: 0.184 µM,
COc1ccccc1N1CCN(C(CNC(=O)C(=O)NCCc2ccccc2)c2cccnc2)CC1 (centres undefined),"inconclusive: 18.4 µM [cytotoxic, single point]",
COc1ccc(CNC(=O)C/C(C)=N/NC(=O)C23CC4CC(CC(C4)C2)C3)cc1,,inactive: -0.875%
O=c1oc2ccccc2c(Nc2ccc(Cl)cc2)c1[N+](=O)[O-],"inconclusive: 20.6 µM [cytotoxic, single point]",
CC(C)Oc1ccc(C(=O)Nc2ccc(Cl)c(S(=O)(=O)Nc3ccc(Cl)cc3)c2)cc1,"inconclusive: 20.6 µM [cytotoxic, single point]",
CC(C)=CCN1CCN(Cc2cn[nH]c2C2CCCCC2)CC1CCO (centres undefined),"inconclusive: 29.1 µM [cytotoxic, single point]",
COc1ccc2c(c1)[C@H]1[C@H](CO2)[C@H](c2ccccc2)[C@]2(C)C(=O)N(Cc3ccc(C)cc3)CC(=O)N12,"inconclusive: 18.4 µM [cytotoxic, single point]",
Cc1ccc(S(=O)(=O)N(C)C)cc1NC(=O)C(C)OC(=O)C1CCC1 (centres undefined),,inactive: 15.1%

# Of the compounds above, these have a furan ring, fused or not.
SMILES,Potency,"activity change, negative = cytotoxic"
Cc1ccc(-c2csc(N(CC3CCCO3)C(=O)c3ccco3)n2)cc1 (centres undefined),"inconclusive: 23.1 µM [cytotoxic, single point]",
Cc1ccccc1CS(=O)(=O)Cc1ccc(C(=O)NCc2ccc(F)cc2)o1,,inactive: -4.87%
COc1ccc(-c2coc3c(C(=O)Nc4cc(OC)c(OC)c(OC)c4)cccc23)c(C)c1,"inconclusive: 20.6 µM [cytotoxic, single point]",
Cc1ccc(CS(=O)(=O)Cc2ccc(C(=O)NCc3cccs3)o2)cc1,,inconclusive: -34.8%

# (list continues)

SMILES,Potency,"activity change, negative = cytotoxic"
CC1CCC(C(C)C)C(OC(=O)Cn2c(-c3ccc(F)cc3)[n+](C)c3ccccc32)C1 (centres undefined),"inconclusive: 9.2 µM [cytotoxic, partial curve, poor fit]",
O=C(CSc1nnc(-c2ccccc2)n1-c1ccc(Cl)cc1)NNC(=S)Nc1ccccc1,,inactive: 15.4%
Cc1ccc(NC(=O)Nc2ccc(F)c(Cl)c2)cc1,,inactive: -24%
Cc1ccc(C)c(NC(=S)N/N=C2/CCCCc3ccccc32)c1,"inconclusive: 29.1 µM [cytotoxic, single point]",
CCN(Cc1ccccc1)C(c1ccc(Cl)cc1)c1nnnn1C(C)(C)C (centres undefined),"inconclusive: 29.1 µM [cytotoxic, single point]",
COc1ccc(CN(C)C(=O)c2cccc(NS(=O)(=O)c3ccccc3)c2)c(OC)c1,,inactive: -3.31%
CCc1cccc2c(C(=O)C(NCCCOC)c3ccccc3)c[nH]c12 (centres undefined),,inactive: -3.47%
C/C(=N\NC(=O)CC(C)C)c1c(C(F)(F)F)[nH]n(-c2nc3ccccc3s2)c1=O,"inconclusive: 18.4 µM [cytotoxic, partial curve, poor fit]",
Cc1ccc(OCC(=O)Nc2ccccc2N2CCCC2)c(C)c1,,inactive: 0%
CCCCCC(=O)N1C[C@H](O)[C@@H](n2cc(-c3ccc(F)cc3)nn2)C[C@@H]1c1ccc(Cl)cc1,"inconclusive: 11.6 µM [cytotoxic, partial curve, poor fit]",
Cc1ccc(Cn2ccsc2=NC(=O)COC(=O)C(C)C)cc1,active: 16.4 µM,
COc1ccc(N2C(c3ccsc3)=Cc3cc4c(cc3C2c2c[nH]c3ccccc23)OCO4)cc1 (centres undefined),"inconclusive: 7.31 µM [cytotoxic, partial curve, poor fit]",
CCn1c(SCC(=O)NC2CCCc3ccccc32)nnc1-c1cccs1 (centres undefined),"inconclusive: 29.1 µM [cytotoxic, single point]",
CC(C(=O)NCc1ccccc1Cl)N1C(=O)c2ccccc2C1=O (centres undefined),"inconclusive: 0.58 µM [rising, full curve, poor fit]",
O=C(Nc1ccc(S(=O)(=O)NCC2CCCO2)cc1)c1ccc(F)cc1 (centres undefined),"inconclusive: 10.3 µM [cytotoxic, partial curve, poor fit]",
Cc1ccc2nc(-c3ccncc3)cc(C(=O)Nc3ccc4c(c3)OCCO4)c2c1,"inconclusive: 23.1 µM [cytotoxic, single point]",
COc1ccc(N(CC(=O)NCCSCc2ccccc2Cl)S(C)(=O)=O)cc1Cl,,inactive: -4.25%
CC(NC(=O)c1cc2c(s1)CS(=O)(=O)C2)c1ccccc1 (centres undefined),,inactive: -15.5%
Cc1nn(-c2cccc([N+](=O)[O-])c2)c(N)c1-c1ccccc1,"inconclusive: 0.0366 µM [cytotoxic, full curve]",
CCOC(=O)c1[nH]c(C)c(C(=O)OCC(=O)NC(C)c2ccc(F)cc2)c1C (centres undefined),active: 1.84 µM,
